Data reported in PubChem BioAssay AID330 (DTP/NCI, 2004).
The list does not hold the whole screen: it gathers tests that were run many times, whatever their T/C, doses with no T/C, and many T/C values between a quarter and a half above the control. Further doses and runs are listed elsewhere. T/C is the treated group as % of the vehicle group. Some entries give survivors of the animals treated and no T/C: the source holds a T/C of zero for them, seemingly a mark for toxic or unscored doses. Some doses without a T/C left all or most animals alive at the check, yet need not have been tolerated: survival well below the control is almost never listed, so the zero probably covers shortened survival too. Counts of survivors are from the toxicity check (mostly the fifth day) where no day follows; animals may have died later. Schedule codes are those of the source, read here as Q, the interval in days (D) or hours (H), X, the number of doses. Some doses were run more than once; the values are given in rising order. For survival time, the PubChem record calls one and a half times the control and up active, and a quarter to a half above the control has no call in these data; cut-offs in other NCI protocols can differ. Some T/C values carry the count of animals alive at the toxicity check (mostly the fifth day); without a count, all were alive then.

System: P388 leukemia ip, CD2F1 mice, survival T/C
Assay: NCI In Vivo Anticancer Drug Screen. Data for tumor model P388 Leukemia (intraperitoneal) in CD2F1 (CDF1) mice
Conditions: T/C endpoint: median survival time, higher T/C = longer survival
[1] = dose: 50.0 mg/kg/injection, schedule: Q01DX005 (ip), vehicle: saline with Tween-80
[2] = dose: 100.0 mg/kg/injection, schedule: Q01DX005 (ip), vehicle: saline with Tween-80
[3] = dose: 200.0 mg/kg/injection, schedule: Q01DX005 (ip), vehicle: saline with Tween-80
[4] = dose: 100.0 mg/kg/injection, schedule: Q01DX009 (ip), vehicle: saline
[5] = dose: 400.0 mg/kg/injection, schedule: Q01DX001 (ip), vehicle: saline with Tween-80
[6] = dose: 50.0 mg/kg/injection, schedule: Q01DX009 (ip), vehicle: saline
[7] = dose: 200.0 mg/kg/injection, schedule: Q01DX009 (ip), vehicle: saline
[8] = dose: 120.0 mg/kg/injection, schedule: Q01DX005 (ip), vehicle: saline with Tween-80
[9] = dose: 240.0 mg/kg/injection, schedule: Q01DX005 (ip), vehicle: saline with Tween-80
[10] = dose: 200.0 mg/kg/injection, schedule: Q01DX005 (ip), vehicle: Klucel (hydroxypropylcellulose) (HPC)
[11] = dose: 100.0 mg/kg/injection, schedule: Q01DX005 (ip), vehicle: Klucel (hydroxypropylcellulose) (HPC)
[12] = dose: 12.5 mg/kg/injection, schedule: Q01DX005 (ip), vehicle: Klucel (hydroxypropylcellulose) (HPC)
[13] = dose: 25.0 mg/kg/injection, schedule: Q01DX005 (ip), vehicle: Klucel (hydroxypropylcellulose) (HPC)

Compound: O=C(Nc1ccc(C2=NCC(O)CN2)cc1)c1ccc(C(=O)Nc2ccc(C3=NCC(O)CN3)cc2)cc1 (centres undefined)
- T/C (dose: 3.13 mg/kg/injection, schedule: Q01DX005 (ip), vehicle: saline with Tween-80): 125 % of control
- T/C (dose: 6.25 mg/kg/injection, schedule: Q01DX005 (ip), vehicle: saline with Tween-80): 141 % of control [5 of 6 alive]
- survivor count (dose: 12.5 mg/kg/injection, schedule: Q01DX005 (ip), vehicle: saline with Tween-80): 1 of 6 and 3 of 6
- survivor count (dose: 25.0 mg/kg/injection, schedule: Q01DX005 (ip), vehicle: saline with Tween-80): 0 of 6
- survivor count [1]: 0 of 6
- survivor count [2]: 0 of 6
- survivor count [3]: 0 of 6

Compound: COC(C(N)=O)c1ccccc1 (centres undefined)
- survivor count [4]: 6 of 6

Compound: CC(C)(C)N=C(CCNC1CCCCC1)Nc1cccc(C(F)(F)F)c1
- survivor count (dose: 200.0 mg/kg/injection, schedule: Q01DX001 (ip), vehicle: saline with Tween-80): 3 of 6
- survivor count [5]: 0 of 6

Compound: C/C(=C\C(=O)c1ccc(F)cc1)N1CCN(c2ccc(F)cc2)CC1
- survivor count (dose: 200.0 mg/kg/injection, schedule: Q01DX005 (ip), vehicle: other): 3 of 6

Compound: CC(=O)NC(/C=C/c1ccc(Cl)c(Cl)c1)c1cccc(O)c(=O)c1 (centres undefined)
- survivor count [6]: 6 of 6
- survivor count [4]: 1 of 6
- survivor count [7]: 2 of 6

Compound: [Cl][Sn]([CH2][CH2][Sn]([Cl])([c]1ccccc1)[c]1ccccc1)([c]1ccccc1)[c]1ccccc1
- survivor count (dose: 3.75 mg/kg/injection, schedule: Q01DX005 (ip), vehicle: saline with Tween-80): 0 of 6
- survivor count (dose: 7.5 mg/kg/injection, schedule: Q01DX005 (ip), vehicle: saline with Tween-80): 0 of 6
- survivor count (dose: 15.0 mg/kg/injection, schedule: Q01DX005 (ip), vehicle: saline with Tween-80): 0 of 6
- survivor count (dose: 60.0 mg/kg/injection, schedule: Q01DX005 (ip), vehicle: saline with Tween-80): 0 of 6
- survivor count [8]: 0 of 6
- survivor count [9]: 0 of 6

Compound: CCCCC#CC(=O)O
- survivor count [7]: 0 of 6

Compound: C[N+](C)(C)CCC(=O)c1ccc([N+](=O)[O-])cc1
- survivor count [7]: 0 of 6

Compound: Cc1c2ccncc2c(CN(CCCl)CCCl)c2c3ccccc3n(C)c12
- T/C (dose: 2.5 mg/kg/injection, schedule: Q01DX005 (ip), vehicle: saline): 134 % of control
- T/C (dose: 5.0 mg/kg/injection, schedule: Q01DX005 (ip), vehicle: saline): 128 and 135 % of control
- survivor count (dose: 200.0 mg/kg/injection, schedule: Q01DX005 (ip), vehicle: saline): 1 of 6
- survivor count (dose: 400.0 mg/kg/injection, schedule: Q01DX005 (ip), vehicle: saline): 0 of 6

Compound: O=C1C(Cl)=C(Nc2cccc3ccccc23)C(=O)c2ccccc21
- survivor count [2]: 3 of 6
- survivor count [3]: 0 of 6

Compound: C/C(=N\O)c1cc(Br)cc([N+](=O)[O-])c1O
- survivor count [10]: 1 of 6

Compound: C1CC(N2CC2)CCC1N1CC1 (centres undefined)
- T/C (dose: 0.39 mg/kg/injection, schedule: Q01DX009 (ip), vehicle: saline): 130 % of control
- T/C (dose: 0.78 mg/kg/injection, schedule: Q01DX009 (ip), vehicle: saline): 145 % of control
- survivor count (dose: 6.25 mg/kg/injection, schedule: Q01DX009 (ip), vehicle: saline): 6 of 6
- survivor count (dose: 12.5 mg/kg/injection, schedule: Q01DX009 (ip), vehicle: saline): 6 of 6
- survivor count (dose: 25.0 mg/kg/injection, schedule: Q01DX009 (ip), vehicle: saline): 0 of 6

Compound: CCCCC1=C([Si](C)(C)C)C(=O)c2ccccc2C1=O
- survivor count [11]: 5 of 5
- T/C [10]: 148 % of control
- survivor count (dose: 400.0 mg/kg/injection, schedule: Q01DX005 (ip), vehicle: Klucel (hydroxypropylcellulose) (HPC)): 2 of 5

Compound: CC(C)NC(=O)OCc1c(COC(=O)NC(C)C)c2n(c1Br)CCC2
- survivor count [1]: 6 of 6
- survivor count [2]: 1 of 6
- survivor count [3]: 0 of 6

Compound: c1ccc(CCNC2CCc3ccccc3C2)cc1 (centres undefined)
- survivor count [2]: 2 of 6
- survivor count [3]: 0 of 6

Compound: CC(=O)N(O)c1ccc2c(c1)Cc1cc(F)ccc1-2
- T/C [2]: 125 % of control
- T/C [3]: 147 % of control

Compound: NC(Cc1ccc(OC(c2ccccc2)c2ccccc2)cc1)C(=O)O (centres undefined)
- survivor count (dose: 50.0 mg/kg/injection, schedule: Q01DX009 (ip), vehicle: saline with Tween-80): 6 of 6

Compound: O=C1c2ccccc2C(=O)N1CCCN1CCOCCOCCN(CCCN2C(=O)c3ccccc3C2=O)CCOCCOCC1
- survivor count (dose: 200.0 mg/kg/injection, schedule: Q04DX002 (ip), vehicle: saline + Tween-80 + alcohol): 1 of 6
- survivor count (dose: 400.0 mg/kg/injection, schedule: Q04DX002 (ip), vehicle: saline + Tween-80 + alcohol): 0 of 6

Compound: CC(=O)OC1OC(/C=N\N(C)C)C(OCc2ccccc2)C(OCc2ccccc2)C1OC(C)=O (centres undefined)
- survivor count (dose: 3.12 mg/kg/injection, schedule: Q01DX009 (ip), vehicle: Klucel (hydroxypropylcellulose) (HPC)): 5 of 5
- survivor count (dose: 12.5 mg/kg/injection, schedule: Q01DX009 (ip), vehicle: other): 6 of 6

Compound: O=C/C=C/c1ccc2c(c1)OC(CO)C(c1ccc(O)c(O)c1)O2 (centres undefined)
- survivor count [12]: 6 of 6
- survivor count [13]: 6 of 6
- survivor count (dose: 50.0 mg/kg/injection, schedule: Q01DX005 (ip), vehicle: Klucel (hydroxypropylcellulose) (HPC)): 6 of 6
- survivor count [11]: 6 of 6
- survivor count [10]: 5 of 6

Compound: CCCC(=O)OC1C=C2N3C(=O)C4CC56C(=CC(OC(C)=O)C7OC75)N4C(=O)C3CC26C2OC12 (centres undefined)
- survivor count (dose: 8.0 mg/kg/injection, schedule: Q01DX005 (ip), vehicle: Klucel (hydroxypropylcellulose) (HPC)): 5 of 6
- survivor count (dose: 16.0 mg/kg/injection, schedule: Q01DX005 (ip), vehicle: Klucel (hydroxypropylcellulose) (HPC)): 1 of 6
- survivor count (dose: 32.0 mg/kg/injection, schedule: Q01DX005 (ip), vehicle: Klucel (hydroxypropylcellulose) (HPC)): 0 of 6

Compound: CCOC(=O)c1ccccc1-n1nnc(C#N)c1N
- survivor count [10]: 0 of 6

Compound: CCCCCCCCCCCC[N+](C)([O-])Cc1ccccc1 (centres undefined)
- survivor count (dose: 100.0 mg/kg/injection, schedule: Q01DX009 (ip), vehicle: Klucel (hydroxypropylcellulose) (HPC)): 5 of 6
- survivor count (dose: 200.0 mg/kg/injection, schedule: Q01DX009 (ip), vehicle: Klucel (hydroxypropylcellulose) (HPC)): 0 of 6

Compound: O=c1oc(-c2ccccc2)nc2c1sc1nc(-c3ccccc3)oc(=O)c12
- survivor count (dose: 1.56 mg/kg/injection, schedule: Q01DX005 (ip), vehicle: Klucel (hydroxypropylcellulose) (HPC)): 5 of 6 and 6 of 6
- survivor count [12]: 6 of 6
- survivor count [13]: 5 of 6
- survivor count [11]: 6 of 6
- survivor count [10]: 4 of 6

Compound: OCCC[N+]12CCCN1CCC2
- survivor count [7]: 0 of 6

Compound: O=C1c2ccccc2SCC12OC2c1ccc(Cl)cc1 (centres undefined)
- survivor count (dose: 400.0 mg/kg/injection, schedule: Q04DX002 (ip), vehicle: saline with Tween-80): 6 of 6

Compound: c1csc(-c2ccn[nH]2)c1
- survivor count [8]: 0 of 6
- survivor count [9]: 0 of 6

Compound: CCC[CH2][Sn]([CH2]CCC)([S]C(C)=O)[S]C(C)=O
- survivor count (dose: 100.0 mg/kg/injection, schedule: Q01DX001 (ip), vehicle: Klucel (hydroxypropylcellulose) (HPC)): 0 of 6
- survivor count (dose: 200.0 mg/kg/injection, schedule: Q01DX001 (ip), vehicle: Klucel (hydroxypropylcellulose) (HPC)): 0 of 6
- survivor count (dose: 400.0 mg/kg/injection, schedule: Q01DX001 (ip), vehicle: Klucel (hydroxypropylcellulose) (HPC)): 1 of 6

Compound: CC1=CC(=O)[C@@H](O)[C@]2(C)[C@H]3[C@@]4(O)OC[C@]35[C@H]([C@@H](C)[C@H]4O)[C@@H](O)C(=O)O[C@@H]5C[C@@H]12
- survivor count [6]: 3 of 6

Compound: CC(=O)ON(C(=O)c1ccc([N+](=O)[O-])cc1)c1ccc(C=O)cc1
- survivor count [5]: 3 of 6
